Laboratory results taken from patent publication US20190030180A1.

B1: IgG1-AXL-733 (antibody, V domains shown)
VH: QVQLVESGGGVVQPGRSLRLSCAASGFSFSTYAMHWVRQAPGKGLEWVAVISYDGDNKYSADSVKGRFTISRDNSKNTLYLQMNSLRAEDTAVYYCARGRKLGIDAFDIWGQGTMVTVSS
VL: AIQLTQSPSSLSASVGDRVTITCRASQGISSALAWYQQKPGKAPKLLIYDASSLESGVPSRFSGSGSGTDFTLTISGLQPEDFATYYCQQFNSYPFTFGPGTKVDIK
B2: IgG1-AXL-148 (antibody, V domains shown)
VH: EVQLLESGGGLVQPGGSLRLSCAASGFTFSSYAMTWVRQAPGKGLEWVSAISISGGSTFYADSVKGRFTISRDNSKNTLYLQMNSLRAEDTAVYYCRGYSGYVYDAFDFWGQGTMVTVSS
VL: DIQMTQSPSSLSASVGDRVTITCRASQGISNWLAWYQQKPEKAPKSLIYAASSLQSGVPSRFSGSGSGTDFTLTISSLQPEDFATYYCQQYNSYPLTFGGGTKVEIK
B3: IgG1-AXL-183 (antibody, V domains shown)
VH: QVQLQQWGAGLLKPSETLSLTCAVYGGSFSGYYWSWIRQPPGKGLEWIGEINQSGSTNYNPSLKSRVTISVDTSKNQFSLKLSSVTAADTSVYYCASGNWDHFFDYWGQGTLVTVSS
VL: DIQMTQSPSSVSASVGDRVTITCRASQGISSWLAWYQHKPGKAPKLLIYATSSLQSGVTSRFSGSGSGTDFTLTISSLQPEDFATYYCQQAKSFPWTFGQGTKVEIK
B4: IgG1-AXL-183-N52Q (antibody, V domains shown)
VH: B3 VH with N52Q
VL: B3 VL

Experiments:
[1] = target: human AXL with a cynomolgus monkey extracellular domain (ECD) (cynomolgus monkey (Macaca fascicularis); human); assay: flow cytometry; transfected HEK293T cells
[2] = target: human AXL with a mouse ECD (mouse ECD in human AXL); assay: flow cytometry; transfected HEK293T cells

Binder	binding [1]	binding [2]
B1	binds	
B2	binds	
B3	binds	binds
B4	binds	binds

Residue numbers refer to the chain shown, from its start. In names and notes the source's numbering stands. No constants are given. Whether binding was seen depends on the method and setting. A result given as binding can be weak or reduced; the word gives no strength.
